Source: PubChem BioAssay AID248 (DTP/NCI, 2004)
The list shows only some results of the screen, not a fair sample: it gathers tests that were run many times, whatever their T/C, doses with no T/C, and many T/C values between a quarter and a half above the control. Other doses and runs of a compound stand elsewhere. T/C: endpoint of the treated group in % of that of the vehicle group. Some entries give survivors of the animals treated and no T/C: the source files T/C as zero there, which appears to mark a toxic dose or a test without result, not a measured value. Some doses without a T/C left all or most animals alive at the check, yet need not have been tolerated: the source hardly ever lists a survival T/C far under the control, and the zero likely stands for such cases as well. Survivors were counted at the toxicity check, usually on the fifth day, unless a day is given; later deaths do not show. Schedules are NCI's codes, taken here to give the interval after Q, in days (D) or hours (H), and the number of doses after X. Some entries were tested several times; the values are given in rising order. Some schedules carry Z or #; the key to these is not given. Some structures stand for samples that the source files as different forms (salt, stereo form or complex); doses refer to the form tested. For survival time, the PubChem record calls one and a half times the control and up active, and a quarter to a half above the control has no call in these data; cut-offs in other NCI protocols can differ. Some T/C values are followed by the survivors on the day toxicity was checked, most often the fifth; without a count, all were alive then.

Tested on: L1210 leukemia ip in BDF1 mice, survival T/C
Test: NCI In Vivo Anticancer Drug Screen. Data for tumor model L1210 Leukemia (intraperitoneal) in B6D2F1 (BDF1) mice
Details: T/C endpoint: mean survival time, higher T/C = longer survival
[1] = dose: 50.0 mg/kg/injection, schedule: Q01DX009 (ip), vehicle: saline
[2] = dose: 150.0 mg/kg/injection, schedule: Q01DX001 (ip), vehicle: saline
[3] = dose: 300.0 mg/kg/injection, schedule: Q01DX001 (ip), vehicle: saline
[4] = dose: 200.0 mg/kg/injection, schedule: Q04DX003 (ip), vehicle: saline
[5] = dose: 400.0 mg/kg/injection, schedule: Q04DX003 (ip), vehicle: saline
[6] = dose: 400.0 mg/kg/injection, schedule: Q04DX003 (ip), vehicle: Klucel (hydroxypropylcellulose) (HPC)
[7] = dose: 300.0 mg/kg/injection, schedule: Q01DX001 (ip), vehicle: carboxymethylcellulose (CMC)
[8] = dose: 400.0 mg/kg/injection, schedule: Q01DX009 (ip), vehicle: saline
[9] = dose: 200.0 mg/kg/injection, schedule: Q01DX001 (ip), vehicle: saline
[10] = dose: 400.0 mg/kg/injection, schedule: Q01DX001 (ip), vehicle: saline
[11] = dose: 200.0 mg/kg/injection, schedule: Q04DX003 (ip), vehicle: Klucel (hydroxypropylcellulose) (HPC)
[12] = dose: 50.0 mg/kg/injection, schedule: Q01DX009 (ip), vehicle: saline with Tween-80
[13] = dose: 100.0 mg/kg/injection, schedule: Q01DX009 (ip), vehicle: saline with Tween-80
[14] = dose: 200.0 mg/kg/injection, schedule: Q01DX009 (ip), vehicle: saline with Tween-80
[15] = dose: 100.0 mg/kg/injection, schedule: Q04DX003 (ip), vehicle: saline with Tween-80
[16] = dose: 200.0 mg/kg/injection, schedule: Q04DX003 (ip), vehicle: saline with Tween-80
[17] = dose: 400.0 mg/kg/injection, schedule: Q04DX003 (ip), vehicle: saline with Tween-80

C1CN1P1(N2CC2)=NP(N2CC2)(N2CC2)=NP(N2CC2)(N2CC2)=N1
T/C (dose: 2.5 mg/kg/injection, schedule: Q01DX009 (ip), vehicle: saline): 129 % of control
T/C (dose: 5.0 mg/kg/injection, schedule: Q01DX009 (ip), vehicle: saline): 128 % of control
T/C (dose: 35.0 mg/kg/injection, schedule: Q01DX009 (ip), vehicle: saline): 141 % of control
survivor count [1]: 3 of 6
survivor count (dose: 75.0 mg/kg/injection, schedule: Q01DX009 (ip), vehicle: saline): 2 of 6
survivor count (dose: 115.0 mg/kg/injection, schedule: Q01DX009 (ip), vehicle: saline): 1 of 6
survivor count [2]: 6 of 6
survivor count [3]: 5 of 6

CN(N)P(=O)(c1ccccc1)N(C)N
survivor count (dose: 100.0 mg/kg/injection, schedule: Q01DX009 (ip), vehicle: saline): 2 of 6
survivor count [4]: 2 of 6
survivor count [5]: 0 of 6

N#Cc1cc2ccccc2[n+](CCCl)c1
survivor count (dose: 10.0 mg/kg/injection, schedule: Q01DX Z (ip), vehicle: saline): 4 of 6
survivor count (dose: 30.0 mg/kg/injection, schedule: Q01DX Z (ip), vehicle: saline): 0 of 6
survivor count (dose: 100.0 mg/kg/injection, schedule: Q01DX Z (ip), vehicle: saline): 0 of 6
survivor count (dose: 300.0 mg/kg/injection, schedule: Q01DX Z (ip), vehicle: saline): 0 of 6

CCN(CC)c1ccc(C(=C(c2ccc(N(CC)CC)cc2)c2ccc(N(CC)CC)cc2)c2ccc(N(CC)CC)cc2)cc1
survivor count [6]: 6 of 6

C=CCC1(C(=C)C)C(=O)NC(=S)NC1=O
survivor count [7]: 2 of 6
survivor count [3]: 3 of 6

CCCCCCCCCCCC[N+](C)(C)C (tested in a mixture with another compound)
survivor count (dose: 20.0 mg/kg/injection, schedule: Q04DX003 (ip), vehicle: Klucel (hydroxypropylcellulose) (HPC)): 6 of 6
survivor count (dose: 25.0 mg/kg/injection, schedule: Q04DX003 (ip), vehicle: saline): 6 of 6
survivor count (dose: 28.0 mg/kg/injection, schedule: Q01DX009 (ip), vehicle: saline): 4 of 6
survivor count (dose: 40.0 mg/kg/injection, schedule: Q01DX009 (ip), vehicle: saline): 2 of 6
survivor count (dose: 50.0 mg/kg/injection, schedule: Q04DX003 (ip), vehicle: saline): 5 of 6
survivor count (dose: 60.0 mg/kg/injection, schedule: Q01DX015 (ip), vehicle: saline): 0 of 6
survivor count (dose: 75.0 mg/kg/injection, schedule: Q01DX001 (ip), vehicle: saline): 3 of 6
survivor count (dose: 80.0 mg/kg/injection, schedule: Q04DX003 (ip), vehicle: Klucel (hydroxypropylcellulose) (HPC)): 3 of 6
survivor count (dose: 100.0 mg/kg/injection, schedule: Q04DX003 (ip), vehicle: saline): 0 of 6 and 1 of 6
survivor count [2]: 1 of 6
survivor count [4]: 0 of 6
survivor count [3]: 1 of 6
survivor count [5]: 0 of 6

Cc1[nH]c(=O)[nH]c(=O)c1/C=C/C(=O)NC(CO)CC(C)C (stereo not given)
T/C [1]: 125 % of control [5 of 6 alive]
T/C (dose: 200.0 mg/kg/injection, schedule: Q01DX009 (ip), vehicle: saline): 125 % of control
survivor count [8]: 3 of 6

CC(O)C(O)C(O)C(O)C(c1ccc(Cl)cc1)c1ccc(Cl)cc1 (stereo not given)
survivor count [9]: 1 of 4
survivor count [10]: 0 of 4

O=C(O)c1cc(Br)c2ccccc2c1O
survivor count [11]: 3 of 6
survivor count [6]: 0 of 6

CCCCC(=O)NN
T/C (dose: 36.0 mg/kg/injection, schedule: Q01DX009 (ip), vehicle: saline with Tween-80): 136 % of control
T/C [12]: 128 % of control
survivor count [13]: 6 of 6
survivor count (dose: 160.0 mg/kg/injection, schedule: Q01DX009 (ip), vehicle: saline with Tween-80): 2 of 6
survivor count (dose: 166.0 mg/kg/injection, schedule: Q01DX009 (ip), vehicle: saline with Tween-80): 0 of 6
survivor count [14]: 1 of 6
survivor count (dose: 400.0 mg/kg/injection, schedule: Q01DX009 (ip), vehicle: saline with Tween-80): 0 of 6

C/C=C(/Cl)c1c(C)cc(C)cc1C
survivor count [14]: 6 of 6

CCOC(=O)CNC(=O)CNC(=O)CCCCSc1ncnc2nc[nH]c12
survivor count (dose: 25.0 mg/kg/injection, schedule: Q01DX009 (oral), vehicle: saline): 6 of 6

O=C(O)c1ccc2c(ccc3ccc4ccccc4c32)c1
survivor count [6]: 2 of 6

O=C(CCl)N1CC2CCC(CC2)C1
survivor count [11]: 5 of 6
survivor count [6]: 0 of 6

CC1(C)N=C(N)N=C(N)N1c1cccc(CCCCc2ccccc2)c1
survivor count (dose: 80.0 mg/kg/injection, schedule: Q01DX001 (ip), vehicle: saline): 0 of 4
survivor count (dose: 100.0 mg/kg/injection, schedule: Q01DX001 (ip), vehicle: saline): 0 of 4
survivor count [9]: 0 of 4
survivor count [10]: 0 of 4

N#C/C(=C\C1CCC(Cl)C(Cl)C1)C1CCC([N+](=O)[O-])CC1 (stereo not given)
survivor count (dose: 200.0 mg/kg/injection, schedule: Q04DX002 (ip), vehicle: saline with Tween-80): 3 of 3

Nc1ncnc2c1c(-c1nc(-c3ccccc3)cs1)cn2C1OC(CO)C(O)C1O (stereo not given)
T/C (dose: 100.0 mg/kg/injection, schedule: Q01DX005 (ip), vehicle: saline): 131 and 135 % of control
T/C (dose: 200.0 mg/kg/injection, schedule: Q01DX005 (ip), vehicle: saline): 132 and 148 % of control

COc1ccc(NC(=O)C(CC(C(C)=O)C(=O)Nc2ccc(OC)cc2)C(C)=O)cc1 (stereo not given)
survivor count [14]: 6 of 6

O=C1C=CC(=Nc2cc(Cl)c(O)c(Cl)c2)C(Cl)=C1
survivor count (dose: 50.0 mg/kg/injection, schedule: Q01DX009 (ip), vehicle: Klucel (hydroxypropylcellulose) (HPC)): 0 of 3
survivor count (dose: 100.0 mg/kg/injection, schedule: Q01DX009 (ip), vehicle: Klucel (hydroxypropylcellulose) (HPC)): 0 of 3
survivor count (dose: 200.0 mg/kg/injection, schedule: Q01DX009 (ip), vehicle: Klucel (hydroxypropylcellulose) (HPC)): 0 of 3

OC1CCC2NCCCC2C1 (stereo not given)
survivor count [7]: 1 of 6

CCOC(=O)c1c(C)nc(C)c(C(=O)OCC)c1-c1ccc(N(C)C)cc1
survivor count [15]: 3 of 6
survivor count (dose: 160.0 mg/kg/injection, schedule: Q04DX002 (ip), vehicle: saline with Tween-80): 0 of 3
survivor count [16]: 0 of 6
survivor count (dose: 400.0 mg/kg/injection, schedule: Q04DX002 (ip), vehicle: saline with Tween-80): 0 of 3
survivor count [17]: 0 of 6

Cc1csc(/N=C/c2ccc([N+](=O)[O-])o2)n1
survivor count [17]: 1 of 6

C[n+]1cccc2cccc(C(=O)O)c21
survivor count [3]: 1 of 6

CN(C)CCCC1C2CCC(C2)C1C#N (stereo not given)
survivor count (dose: 100.0 mg/kg/injection, schedule: Q04DX003 (ip), vehicle: Klucel (hydroxypropylcellulose) (HPC)): 2 of 6
survivor count [11]: 0 of 6
survivor count [6]: 0 of 6

Cc1c(Cl)cccc1NC(=O)Nc1cccc2c(O)cccc12
survivor count [12]: 3 of 3
T/C [13]: 89 and 90 % of control
survivor count [13]: 3 of 3 and 6 of 6
survivor count [15]: 6 of 6
T/C [14]: 86 and 86 % of control [2 of 3 alive]
survivor count [14]: 3 of 3 and 6 of 6
survivor count [17]: 6 of 6

O=C(O)c1ccccc1C(=O)Nc1cc(Cl)ccc1Cl
survivor count [6]: 6 of 6

CC1(C)CC(=O)c2ccccc21
survivor count [8]: 0 of 6

CCCCCCCCCCCCOCCCN
survivor count [12]: 5 of 6
survivor count [15]: 1 of 6
survivor count [16]: 0 of 6
survivor count [17]: 0 of 6
